# Values of other authors in patent publication US20050059032A1, “Methods & compositions relating to drug-induced arrhythmia” (Pfizer Inc, priority 2002, published 2005).
# Some entries share one result that the patent states for a list of compounds.
# Tested on: patients
# Conditions: patients treated with the drug; Tan et al. 1995; cited from earlier work
row,SMILES,patients who develop excessive QT interval prolongation or precipitous occurrence of torsade de pointes [%]
1,CCCCCCCN(CC)CCCC(O)c1ccc(NS(C)(=O)=O)cc1 (stereo not drawn) [ibutilide],≤ 10
2,C=C[C@H]1C[N@@]2CC[C@H]1C[C@@H]2[C@@H](O)c1ccnc2ccc(OC)cc12 [quinidine],≤ 10
3,CC(C)NCC(O)c1ccc(NS(C)(=O)=O)cc1 (stereo not drawn) [sotalol],≤ 10
